Measurements reported in PubChem BioAssay AID758 (NMMLSC, 2007).
In all, about 190,000 compounds went through this assay and about 110 (0.058%) were called active. The inconclusive results got no clear call from the source; some entries with a clear call stand among them for comparison.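 How the source made its calls: active means fluorescent GTP binding to Rab7 beads changed by at least 20 points from the 100% baseline, either direction, mostly lower; inconclusive means compound itself probably fluorescent, or too few beads counted; inactive means the rest.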

What follows are compounds tested on Rab7 GTPase wild type (dog), Bodipy-FL-GTP binding (assay: modulators of GTP binding to Rab7, primary screen, biochemical, wildtype, multiplex bead flow cytometry (AID 758;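 further: median green fluorescence of bound Bodipy-FL-GTP per Rab7 bead population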)). Details: GST-Rab7 beads, fluorescent GTP binding, at 10 µM, actives lie on both sides, untreated = 100%, excess cold GTP = 0%.
`Cc1ccc2cc(C#N)c(NCCNC(=O)C3CC3)nc2c1C` was tested, and the GTP binding activity (percent of control) was inconclusive: 93%. `Cn1ncc(N=Cc2c(O)ccc3ccccc23)c1C(=O)Nc1cccc(Cl)c1` was tested, and the GTP binding activity (percent of control) was inconclusive: 101%. In the case of `Cc1ccc(CNC(=O)CSc2nc3n[nH]c(C)c3c(=N)n2-c2cccc(C)c2)cc1`, the GTP binding activity (percent of control) is reported as inconclusive: 94%. `COc1cc(C(=O)OC2CCN(C)CC2)cc(OC)c1OC` was tested, and the GTP binding activity (percent of control) was inconclusive: 101%. For `CC(C)(C)c1ccc(C(=O)CC(Sc2ccc(Cl)cc2)C(=O)O)cc1` (stereo not given), the GTP binding activity (percent of control) was inconclusive: 85%. `Cc1nnc(-c2ccccc2)[nH]c1=O` was tested, and the GTP binding activity (percent of control) was inactive: 92%. In the case of `CCOc1ccc(-c2cc(C(=O)OC)[nH]n2)cc1`, the GTP binding activity (percent of control) is reported as inconclusive: 225%. With `CCN(CC)S(=O)(=O)c1cccc(C(=O)OCC(=O)NC(C)c2ccccc2)c1` (stereo not given) the GTP binding activity (percent of control) was inactive: 98%. With `COC(=O)C(C)Sc1ccc2nnc(-c3ccc(F)cc3)n2n1` (stereo not given) the GTP binding activity (percent of control) was inconclusive: 108%. With `COc1cccc(CN2CCNC(=O)C2CC(=O)NCCn2cccn2)c1OC` (stereo not given) the GTP binding activity (percent of control) was inconclusive: 95%. For `COc1ccc(OCCSc2nnc(-c3ccc(OC)cc3)n2N)cc1`, the GTP binding activity (percent of control) was inactive: 95%. With `Cc1nnc(SCC(=O)NNC(=O)c2ccc(Cl)cc2)n1CC1CCCO1` (stereo not given) the GTP binding activity (percent of control) was inactive: 100%. With `CCOC(=O)C1=C(NC(=O)c2ccc(Br)o2)Nc2ccccc2N=C1` the GTP binding activity (percent of control) was inconclusive: 99%. With `COc1ccc(-c2nc(C(F)(F)F)c(OC)o2)cc1OC` the GTP binding activity (percent of control) was inactive: 105%. In the case of `CCN(CC)S(=O)(=O)c1cnccc1N1CCN(c2cccc(Cl)c2)CC1`, the GTP binding activity (percent of control) is reported as inactive: 104%. In the case of `Clc1ccc(Sc2ccc(/C=N/n3cnnc3)o2)cc1`, the GTP binding activity (percent of control) is reported as inconclusive: 103%. With `O=S(=O)(c1ccc(F)cc1)N1CCCC(CO)C1` (stereo not given) the GTP binding activity (percent of control) was inconclusive: 108%. For `Cc1ccc(-n2c(-c3ccco3)n[nH]c2=S)cc1`, the GTP binding activity (percent of control) was inconclusive: 86%. `COc1ccc(-c2csc(NC(=O)Cc3cccc4ccccc34)c2C(=O)O)cc1` was tested, and the GTP binding activity (percent of control) was inactive: 81%. `COc1ccc(CCNC(=O)C(=O)Nc2nccs2)cc1OC` was tested, and the GTP binding activity (percent of control) was inactive: 97%. With `COc1ccc(-c2nn(-c3ccccc3)cc2/C=C\C(=O)N2CCOCC2)cc1[N+](=O)[O-]` the GTP binding activity (percent of control) was inactive: 93%. With `COC(=O)c1sc2ccccc2c1-n1cccc1C(=O)C(=O)Nc1ccccc1` the GTP binding activity (percent of control) was inconclusive: 97%. With `O=C(NC(=S)Nc1ccc(F)c([N+](=O)[O-])c1)c1ccccc1F` the GTP binding activity (percent of control) was inconclusive: 91%. `CC(=O)Nc1ccc(S(=O)(=O)n2nc(-c3ccc(C)cc3)nc2N)cc1` was tested, and the GTP binding activity (percent of control) was inconclusive: 105%. `CCOc1ccc(NC(=O)/C=C/c2ccc(OC)cc2)c([N+](=O)[O-])c1` was tested, and the GTP binding activity (percent of control) was inconclusive: 101%. With `Cc1ccc(NC(=S)NN2CCN(C)CC2)c(C)c1` the GTP binding activity (percent of control) was inconclusive: 98%. With `CCOC(=O)C1(C)NC(c2ccco2)C2C(=O)N(CC)C(=O)C21` (stereo not given) the GTP binding activity (percent of control) was inactive: 103%. For `Cc1ccc(C(=O)N2CCN(c3ncccn3)CC2)o1`, the GTP binding activity (percent of control) was inconclusive: 100%. With `O=C(NCCCN1CCOCC1)c1ccccc1` the GTP binding activity (percent of control) was inconclusive: 105%. With `CC(=O)Nc1nc(C)c(-c2csc(Nc3ccccn3)n2)s1` the GTP binding activity (percent of control) was inconclusive: 97%. With `Cc1cccc(-n2ccnc2SCC(=O)Nc2cc(C)on2)c1` the GTP binding activity (percent of control) was inconclusive: 103%. In the case of `CCn1c2ccc(C)cc2c2nc3cc(C(=O)O)ccc3nc21`, the GTP binding activity (percent of control) is reported as inconclusive: 88%. In the case of `CC(CN1CCOCC1)OC(=O)c1ccc(Br)cc1` (stereo not given), the GTP binding activity (percent of control) is reported as inconclusive: 104%. With `COc1cc(/C=N/Nc2ncnc3sc4c(c23)CCC4)ccc1O` the GTP binding activity (percent of control) was inconclusive: 87%. In the case of `COCCn1c(SCCN2CCOCC2)nc2c1c(=O)[nH]c(=O)n2C`, the GTP binding activity (percent of control) is reported as inconclusive: 103%. In the case of `COc1ccc(Oc2ncnc3c2ncn3Cc2ccccc2)cc1`, the GTP binding activity (percent of control) is reported as inconclusive: 90%. `COCc1nnc(NC(=O)c2cc(OC)c(OC)cc2[N+](=O)[O-])s1` was tested, and the GTP binding activity (percent of control) was inactive: 100%. `COc1ccccc1C/C(N)=N/OC(=O)COc1ccc2ccccc2c1` was tested, and the GTP binding activity (percent of control) was inconclusive: 92%. For `Cc1cc(C)n(-c2nnc(NC34CC5CC(CC(C5)C3)C4)nn2)n1`, the GTP binding activity (percent of control) was inactive: 102%. With `COC(=O)c1cc(C(=O)OC)cc(-n2c(C)cc(C(=O)COC(=O)CNS(=O)(=O)c3ccc(C)cc3)c2C)c1` the GTP binding activity (percent of control) was inactive: 100%. For `CSc1nnc(-c2cccc(C)c2)n1N`, the GTP binding activity (percent of control) was inconclusive: 99%. For `CCOP(=O)(OCC)C(Nc1ccc(C)cc1)c1ccco1` (stereo not given), the GTP binding activity (percent of control) was inactive: 97%. In the case of `O=C(c1cc2ccc([N+](=O)[O-])cc2oc1=O)N1CCOCC1`, the GTP binding activity (percent of control) is reported as inactive: 97%. With `Cc1ccc(C)c(S(=O)(=O)Nc2ccccc2C(=O)Nc2ccc(S(=O)(=O)Nc3ncccn3)cc2)c1` the GTP binding activity (percent of control) was inactive: 99%. For `COc1cc(/C=C(/C#N)c2nc3ccccc3[nH]2)ccc1OCc1ccc(C(=O)O)o1`, the GTP binding activity (percent of control) was inactive: 94%. `CCOC(=O)c1c(CSc2ccccc2)n(C)c2cc(Br)c(OCC(O)CNC(CO)(CO)CO)cc12` (stereo not given) was tested, and the GTP binding activity (percent of control) was inactive: 104%. For `Cn1c(N)c(C(=O)COC(=O)CC2CC3CCC2C3)c(=O)n(C)c1=O` (stereo not given), the GTP binding activity (percent of control) was inconclusive: 105%. In the case of `Cc1csc(NC(=O)CSc2ccc3nnc(-c4ccncc4)n3n2)n1`, the GTP binding activity (percent of control) is reported as inconclusive: 107%. In the case of `CN(C)CCCNc1cn[nH]c(=O)c1Cl`, the GTP binding activity (percent of control) is reported as inactive: 99%. With `O=C(C#Cc1cccc([N+](=O)[O-])c1)c1ccccc1` the GTP binding activity (percent of control) was inactive: 92%. For `CCOC(=O)/C(=C/C=C1\Sc2cc(OCC)c(OCC)cc2N1CC)C(C)=O`, the GTP binding activity (percent of control) was inconclusive: 86%. With `O=C(c1cc(COc2c(F)cccc2F)on1)N1CCc2ccccc2C1` the GTP binding activity (percent of control) was inconclusive: 93%. `CN1C(=O)/C(=C2\SC(=S)N(CC3CCCO3)C2=O)c2ccccc21` (stereo not given) was tested, and the GTP binding activity (percent of control) was inactive: 102%. With `COc1ccc(OC)c(NC(=O)c2ccc(-n3cccn3)nc2)c1` the GTP binding activity (percent of control) was inactive: 97%. In the case of `Cc1nn(C)cc1CN(C)C(=O)CCc1nnc(CCC2CCCCC2)o1`, the GTP binding activity (percent of control) is reported as inactive: 95%. `COc1cc(N2CCCC2)c(OC)cc1/C=C(/C#N)c1cccc(Br)c1` was tested, and the GTP binding activity (percent of control) was inconclusive: 193%. With `N#Cc1sc2nc3c(c(-c4cccnc4)c2c1N)CCC3` the GTP binding activity (percent of control) was inconclusive: 98%. `CC(=O)c1sc(Nc2nc(C)cc(C)n2)nc1C` was tested, and the GTP binding activity (percent of control) was inconclusive: 106%. For `Cc1ccc(C)c(N2CCN(C(=O)Cn3c(=O)[nH]c4ccsc4c3=O)CC2)c1`, the GTP binding activity (percent of control) was inconclusive: 102%. For `O=C1OC(c2ccc(F)cc2)=C/C1=C\c1ccc([N+](=O)[O-])o1`, the GTP binding activity (percent of control) was active: 124% [activator].
